Where a name gives a salt, the structure may show the parent alone. The list shows a part of the results. The numbers are fractions of the control, whatever unit the source prints. Most entries show no effect beyond the scatter of the controls.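 A lentiviral reporter stably expressed in MIN6 mouse insulinoma beta cells uses Pdx1 and Ins1 promoters to drive separate nucleus-targeted fluorescent proteins; automated imaging with Hoechst nuclear stain counted cells. Possible hits were drugs shifting Ins1 promoter signal more than two median absolute deviations from DMSO controls, with Pdx1 activity roughly normal.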
tested on: MIN6; experiment: % Pdx1+ Ins1+ (double-positive, mature) cells relative to DMSO control (fold of DMSO control); higher = more mature Ins1 promoter-active cells; conditions: 8.5 µM; 48 h; glucose 5 mM

Row | SMILES | % Pdx1+ Ins1+
1 | CNCCC(Oc1ccc(C(F)(F)F)cc1)c1ccccc1 (stereo not drawn) [Fluoxetine hydrochloride] | 0.847
2 | Cc1nc2n(c(=O)c1CCN1CCC(c3noc4cc(F)ccc34)CC1)CCCC2 [Risperidone] | 0.785
3 | OCc1cc(C(O)CNCCCCCCOCCCCc2ccccc2)ccc1O (stereo not drawn) [Salmeterol] | 0.988
4 | CC(=O)[C@H]1CC[C@H]2[C@@H]3C[C@H](C)C4=CC(=O)CC[C@]4(C)[C@H]3[C@@H](O)C[C@]12C [Medrysone] | 0.947
5 | CCCCNC(=O)NS(=O)(=O)c1ccc(C)cc1 [Tolbutamide] | 1.02
6 | O=C(O)c1cc(-c2ccc(F)cc2F)ccc1O [Diflunisal] | 1.01
7 | Cn1c(-c2ccc3c(c2)OCO3)cc(=O)c2ccccc21 [Graveoline] | 0.93
8 | CCn1cc(C(=O)O)c(=O)c2cnc(N3CCCC3)nc21 [Piromidic acid] | 1.08
9 | COc1ccc2cc([C@@H](C)C(=O)O)ccc2c1 [(R) -Naproxen sodium salt] | 0.885
10 | Nc1nc(=O)c2c([nH]1)NC[C@@H](CNc1ccc(C(=O)N[C@@H](CCC(=O)O)C(=O)O)cc1)N2C=O [Folinic acid calcium salt] | 0.825
11 | CC(C)NCC(O)COc1cccc2ccccc12 (stereo not drawn) [Propranolol hydrochloride] | 1.02
12 | CCCCC(CC)CNC(=N)NC(=N)NCCCCCCNC(=N)NC(=N)NCC(CC)CCCC (stereo not drawn) [Alexidine dihydrochloride] | 0
13 | COC(=O)[C@@H]1[C@H]2C[C@H]3c4[nH]c5ccccc5c4CCN3C[C@@H]2CC[C@@H]1O [Yohimbine hydrochloride] | 0.783
14 | CC1(C)NC(=O)N(c2ccc([N+](=O)[O-])c(C(F)(F)F)c2)C1=O [Nilutamide] | 0.863
15 | CCC1=C(C)CN(C(=O)NCCc2ccc(S(=O)(=O)NC(=O)N[C@H]3CC[C@H](C)CC3)cc2)C1=O [Glimepiride] | 1.02
16 | CCS(=O)(=O)CCn1c([N+](=O)[O-])cnc1C [Tinidazole] | 0.929
17 | CCCCOc1cc(C(=O)NCCN(CC)CC)c2ccccc2n1 [Dibucaine] | 1.15
18 | COc1ccc2cc1Oc1ccc(cc1)C[C@H]1c3cc(c(OC)cc3CCN1C)Oc1c(OC)c(OC)cc3c1[C@H](C2)N(C)CC3 [Tetrandrine] | 0.254
19 | C[C@]12CC[C@@H]3c4ccc(O)cc4CC[C@H]3[C@@H]1CCC2=O [Estrone] | 0.994
20 | CN(C)[C@@H]1C(O)=C(C(N)=O)C(=O)[C@@]2(O)C(O)=C3C(=O)c4c(O)ccc(Cl)c4[C@@](C)(O)[C@H]3C[C@@H]12 [Chlortetracycline hydrochloride] | 0.992
21 | CC(=O)N(CC(C)C(=O)O)c1c(I)cc(I)c(N)c1I (stereo not drawn) [Iocetamic acid] | 0.859
22 | CNCCC(Oc1ccccc1OC)c1ccccc1 (stereo not drawn) [Nisoxetine hydrochloride] | 0.872
23 | O=C(O)CCC(=O)Nc1ccc(S(=O)(=O)Nc2nccs2)cc1 [Succinylsulfathiazole] | 0.853
24 | COc1cnc(NS(=O)(=O)c2ccc(N)cc2)nc1 [Sulfameter] | 0.977
25 | Cc1cccc(CN2CCN(C(c3ccccc3)c3ccc(Cl)cc3)CC2)c1 (stereo not drawn) [Meclozine dihydrochloride] | 0.857

Row | SMILES | % Pdx1+ Ins1+
26 | CCOC(=O)C1=C[C@]2(CC)CCCN3CCc4c(n1c1ccccc41)[C@@H]32 [Vinpocetine] | 1.06
27 | C=C1C[C@]23C[C@@]1(O)CC[C@H]2[C@@]12C=C[C@H](O)[C@@](C)(C(=O)O1)[C@H]2[C@@H]3C(=O)O [Gibberellic acid] | 0.967
28 | c1ccc2[nH]c(-c3cscn3)nc2c1 [Tiabendazole] | 1
29 | CN1[C@@H](CC(=O)c2ccccc2)CCC[C@H]1C[C@H](O)c1ccccc1 [Lobeline alpha (-) hydrochoride] | 0.907
30 | CC1CS(=O)(=O)CCN1/N=C/c1ccc([N+](=O)[O-])o1 (stereo not drawn) [Nifurtimox] | 1.06
31 | CO/N=C(\C(=O)N[C@@H]1C(=O)N2C(C(=O)O)=C(C[N+]3(C)CCCC3)CS[C@H]12)c1csc(N)n1 [Cefepime hydrochloride] | 0.81
32 | CCOC(=O)[C@H](CCc1ccccc1)N[C@@H](C)C(=O)N1CCC[C@H]1C(=O)O [Enalapril maleate] | 1.02
33 | CC1=C(CC(=O)O)c2cc(F)ccc2/C1=C\c1ccc([S+](C)[O-])cc1 (stereo not drawn) [Sulindac] | 1.17
34 | CCc1cccc2c3c([nH]c12)C(CC)(CC(=O)O)OCC3 (stereo not drawn) [Etodolac] | 1.1
35 | Cc1noc(NS(=O)(=O)c2ccc(N)cc2)c1C [Sulfisoxazole] | 0.972
36 | CC[N+](CC)(CC)CCC(O)(c1ccccc1)C1CCCCC1 (stereo not drawn) [Tridihexethyl chloride] | 0.858
37 | CN(C)CCCO[C@@H]1[C@H]2OC(C)(C)O[C@H]2O[C@@H]1[C@H](O)CO [Amiprilose hydrochloride] | 0.99
38 | C[C@]12CC[C@@H]3c4ccc(O)cc4CC[C@H]3[C@@H]1C[C@@H](O)[C@@H]2O [Estriol] | 0.854
39 | OCCOCCN1CCN(C(c2ccccc2)c2ccc(Cl)cc2)CC1 (stereo not drawn) [Hydroxyzine dihydrochloride] | 0.998
40 | C=CC1=C(C(=O)O)N2C(=O)[C@@H](NC(=O)/C(=N\OCC(=O)O)c3csc(N)n3)[C@H]2SC1 [Cefixime] | 1.02
41 | Cc1ccccc1N1C(=O)c2cc(S(N)(=O)=O)c(Cl)cc2NC1C (stereo not drawn) [Metolazone] | 1.07
42 | COc1ccc2[nH]c([S+]([O-])Cc3ncc(C)c(OC)c3C)nc2c1 (stereo not drawn) [Omeprazole] | 0.917
43 | CC(=O)Nc1ccc(O)cc1 [Acetaminophen] | 0.966
44 | CN(C)CCOC(=O)COc1ccc(Cl)cc1 [Meclofenoxate hydrochloride] | 0.812
45 | N=C(N)N/N=C/c1c(Cl)cccc1Cl [Guanabenz acetate] | 0.689
46 | OC(CCN1CCCCC1)(c1ccccc1)C1CCCCC1 (stereo not drawn) [Trihexyphenidyl-D,L Hydrochloride] | 0.894
47 | CCC(=O)OCC(=O)[C@@]1(OC(=O)CC)[C@H](C)C[C@H]2[C@H]3[C@H]([C@@H](O)C[C@@]21C)[C@@]1(C)C=CC(=O)C=C1C[C@H]3Cl [Alclometasone dipropionate] | 0.865
48 | c1ccc2c(c1)CCCc1cc(NCCN3CCOCC3)nnc1-2 | 0.907
49 | Nc1cc(-c2ccncc2)c[nH]c1=O [Amrinone] | 0.809
50 | CN(C)[C@@H]1C(O)=C(C(N)=O)C(=O)[C@@]2(O)C(O)=C3C(=O)c4c(O)ccc(Cl)c4[C@@H](O)[C@H]3C[C@@H]12 [Demeclocycline hydrochloride] | 0.982

Not a retest: an excerpt of the list.
Row | SMILES | % Pdx1+ Ins1+
31 | CO/N=C(\C(=O)N[C@@H]1C(=O)N2C(C(=O)O)=C(C[N+]3(C)CCCC3)CS[C@H]12)c1csc(N)n1 [Cefepime hydrochloride] | 0.81
32 | CCOC(=O)[C@H](CCc1ccccc1)N[C@@H](C)C(=O)N1CCC[C@H]1C(=O)O [Enalapril maleate] | 1.02
33 | CC1=C(CC(=O)O)c2cc(F)ccc2/C1=C\c1ccc([S+](C)[O-])cc1 (stereo not drawn) [Sulindac] | 1.17
34 | CCc1cccc2c3c([nH]c12)C(CC)(CC(=O)O)OCC3 (stereo not drawn) [Etodolac] | 1.1
35 | Cc1noc(NS(=O)(=O)c2ccc(N)cc2)c1C [Sulfisoxazole] | 0.972
36 | CC[N+](CC)(CC)CCC(O)(c1ccccc1)C1CCCCC1 (stereo not drawn) [Tridihexethyl chloride] | 0.858
37 | CN(C)CCCO[C@@H]1[C@H]2OC(C)(C)O[C@H]2O[C@@H]1[C@H](O)CO [Amiprilose hydrochloride] | 0.99
38 | C[C@]12CC[C@@H]3c4ccc(O)cc4CC[C@H]3[C@@H]1C[C@@H](O)[C@@H]2O [Estriol] | 0.854
39 | OCCOCCN1CCN(C(c2ccccc2)c2ccc(Cl)cc2)CC1 (stereo not drawn) [Hydroxyzine dihydrochloride] | 0.998
40 | C=CC1=C(C(=O)O)N2C(=O)[C@@H](NC(=O)/C(=N\OCC(=O)O)c3csc(N)n3)[C@H]2SC1 [Cefixime] | 1.02
41 | Cc1ccccc1N1C(=O)c2cc(S(N)(=O)=O)c(Cl)cc2NC1C (stereo not drawn) [Metolazone] | 1.07
42 | COc1ccc2[nH]c([S+]([O-])Cc3ncc(C)c(OC)c3C)nc2c1 (stereo not drawn) [Omeprazole] | 0.917
43 | CC(=O)Nc1ccc(O)cc1 [Acetaminophen] | 0.966
44 | CN(C)CCOC(=O)COc1ccc(Cl)cc1 [Meclofenoxate hydrochloride] | 0.812
45 | N=C(N)N/N=C/c1c(Cl)cccc1Cl [Guanabenz acetate] | 0.689
46 | OC(CCN1CCCCC1)(c1ccccc1)C1CCCCC1 (stereo not drawn) [Trihexyphenidyl-D,L Hydrochloride] | 0.894
47 | CCC(=O)OCC(=O)[C@@]1(OC(=O)CC)[C@H](C)C[C@H]2[C@H]3[C@H]([C@@H](O)C[C@@]21C)[C@@]1(C)C=CC(=O)C=C1C[C@H]3Cl [Alclometasone dipropionate] | 0.865
48 | c1ccc2c(c1)CCCc1cc(NCCN3CCOCC3)nnc1-2 | 0.907
49 | Nc1cc(-c2ccncc2)c[nH]c1=O [Amrinone] | 0.809
50 | CN(C)[C@@H]1C(O)=C(C(N)=O)C(=O)[C@@]2(O)C(O)=C3C(=O)c4c(O)ccc(Cl)c4[C@@H](O)[C@H]3C[C@@H]12 [Demeclocycline hydrochloride] | 0.982

(listing goes on)

Row | SMILES | % Pdx1+ Ins1+
51 | Cn1c([N+](=O)[O-])cnc1COC(N)=O [Ronidazole] | 1.09
52 | N[C@@H](C(=O)N[C@@H]1C(=O)N2C(C(=O)O)=C(Cl)CS[C@H]12)c1ccccc1 [Cefaclor] | 0.94
53 | CC(Oc1ccccc1)C(=O)N[C@@H]1C(=O)N2[C@@H]1SC(C)(C)[C@@H]2C(=O)O (stereo partly drawn) [Phenethicillin potassium salt] | 0.953
54 | CN1CCN(C2=Nc3cc(Cl)ccc3Nc3ccccc32)CC1 [Clozapine] | 0.941
55 | C[C@@H]1NC(=O)NC1=O [Methylhydantoin-5-(L)] | 0.862
56 | NC12CC3CC(CC(C3)C1)C2 [Adamantamine fumarate] | 1.05
57 | Cc1cc(=O)n(-c2ccccc2)n1C [Antipyrine] | 1.11
58 | Clc1ccc(COC(Cn2ccnc2)c2ccc(Cl)cc2Cl)c(Cl)c1 (stereo not drawn) [Miconazole] | 1.08
59 | CC(C)(C(=O)c1cccnc1)c1cccnc1 [Metyrapone] | 0.941
60 | O=c1cc(-c2ccc(O)c(O)c2)oc2cc(O)cc(O)c12 [Luteolin] | 0.498
61 | CC(C)/N=c1\cc2n(-c3ccc(Cl)cc3)c3ccccc3nc-2cc1Nc1ccc(Cl)cc1 [Clofazimine] | 0.783
62 | CCN[C@H]1C[C@H](C)S(=O)(=O)c2sc(S(N)(=O)=O)cc21 [Dorzolamide hydrochloride] | 0.914
63 | CC(=O)N(O)CCCCCNC(=O)CCC(=O)N(O)CCCCCNC(=O)CCC(=O)N(O)CCCCCN [Deferoxamine mesylate] | 0.676
64 | CC(C)NC[C@H](O)COc1ccc(CC(N)=O)cc1 [(S)-(-)-Atenolol] | 1
65 | CO[C@@]1(NC(=O)CSCC#N)C(=O)N2C(C(=O)O)=C(CSc3nnnn3C)CS[C@@H]21 [Cefmetazole sodium salt] | 0.721
66 | C[C@@H]1[C@H](O)[C@@H](C)/C=C/C=C/C=C/C=C/C=C/C=C/C=C/[C@H](O[C@@H]2O[C@H](C)[C@@H](O)[C@H](N)[C@@H]2O)C[C@@H]2O[C@](O)(C[C@@H](O)C[C@@H](O)[C@H](O)CC[C@@H](O)C[C@@H](O)CC(=O)O[C@H]1C)C[C@H](O)[C@H]2C(=O)O [Amphotericin B] | 1.08
67 | CCC(NC(C)C)C(O)c1ccc(O)c(O)c1 (stereo not drawn) [Isoetharine mesylate salt] | 0.9
68 | CCC(Cc1c(I)cc(I)c(N)c1I)C(=O)O (stereo not drawn) [Iopanoic acid] | 0.903
69 | CN1CCc2cccc3c2[C@H]1Cc1ccc(O)c(O)c1-3 [R(-) Apomorphine hydrochloride hemihydrate] | 0.848
70 | CC[C@@H](CC[C@@H](C)[C@H]1CC[C@H]2[C@@H]3CCC4C[C@@H](O)CC[C@]4(C)[C@H]3CC[C@]12C)C(C)C (stereo partly drawn) [Beta-sistosterol] | 0.972
71 | COc1cc(OC)c(C(=O)CCCN2CCCC2)c(OC)c1 [Buflomedil hydrochloride] | 0.95
72 | COc1ccc2c(c1)N(C[C@H](C)CN(C)C)c1ccccc1S2 [Methotrimeprazine maleat salt] | 1.02
73 | CCCN(CCC)C(=O)C(CCC(=O)O)NC(=O)c1ccccc1 (stereo not drawn) [Proglumide] | 1.08

— the supplement of paper PMC4807443
